# Data: publication PMC9726891, “SESAME-catalyzed H3T11 phosphorylation inhibits Dot1-catalyzed H3K79me3 to regulate autophagy and telomere silencing” (Nature Communications, 2022)
# Chains of the proteins cited; added tags and fusions are not shown.
# UniProt P10659: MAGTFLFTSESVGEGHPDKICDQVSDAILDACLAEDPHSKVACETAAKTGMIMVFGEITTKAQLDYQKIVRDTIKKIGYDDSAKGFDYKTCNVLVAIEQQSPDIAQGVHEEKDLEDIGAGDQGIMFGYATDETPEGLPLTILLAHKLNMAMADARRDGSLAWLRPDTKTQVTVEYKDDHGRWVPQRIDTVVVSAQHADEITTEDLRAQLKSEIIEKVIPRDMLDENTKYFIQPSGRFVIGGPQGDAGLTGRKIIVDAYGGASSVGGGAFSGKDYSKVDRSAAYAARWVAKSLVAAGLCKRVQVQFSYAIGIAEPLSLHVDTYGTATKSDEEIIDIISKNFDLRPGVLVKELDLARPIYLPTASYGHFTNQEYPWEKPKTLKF
# T1: Reb1-FLAG (S. cerevisiae (endogenous in yeast)) (UniProt P21538)
# T1 sequence: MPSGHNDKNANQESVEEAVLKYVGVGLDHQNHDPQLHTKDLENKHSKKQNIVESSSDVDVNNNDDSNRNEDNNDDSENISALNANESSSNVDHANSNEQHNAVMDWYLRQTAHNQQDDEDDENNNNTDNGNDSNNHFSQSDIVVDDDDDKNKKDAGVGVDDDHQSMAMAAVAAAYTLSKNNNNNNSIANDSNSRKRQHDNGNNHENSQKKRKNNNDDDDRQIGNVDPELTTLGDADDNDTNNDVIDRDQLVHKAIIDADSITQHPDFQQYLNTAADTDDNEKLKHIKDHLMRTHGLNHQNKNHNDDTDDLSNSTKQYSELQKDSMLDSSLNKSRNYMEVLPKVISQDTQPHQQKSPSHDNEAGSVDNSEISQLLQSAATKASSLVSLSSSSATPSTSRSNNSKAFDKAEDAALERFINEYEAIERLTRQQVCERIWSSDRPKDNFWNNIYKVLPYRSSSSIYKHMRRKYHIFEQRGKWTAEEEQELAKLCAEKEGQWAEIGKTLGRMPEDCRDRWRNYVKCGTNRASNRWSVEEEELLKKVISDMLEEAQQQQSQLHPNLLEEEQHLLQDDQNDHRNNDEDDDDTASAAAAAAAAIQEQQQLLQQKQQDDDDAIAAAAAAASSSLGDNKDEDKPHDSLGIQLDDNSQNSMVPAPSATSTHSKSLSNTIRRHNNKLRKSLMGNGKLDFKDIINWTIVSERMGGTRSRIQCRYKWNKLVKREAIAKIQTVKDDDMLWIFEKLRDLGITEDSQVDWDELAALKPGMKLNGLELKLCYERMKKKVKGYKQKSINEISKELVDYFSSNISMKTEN
# Target: T1, Reb1-FLAG (S. cerevisiae (endogenous in yeast))
# Test: affinity purification with mass spectrometry; Reb1-FLAG immunoprecipitated by anti-FLAG beads; LC-MS of the tryptic digest; one biological replicate
row,binding,Molecule
1,binds,Sam1 (from UniProt P10659 1-382) (enzyme)
2,binds,"pyruvate kinase Pyk1 (enzyme, UniProt P00549 1-500) MSRLERLTSLNVVAGSDLRRTSIIGTIGPKTNNPETLVALRKAGLNIVRMNFSHGSYEYHKSVIDNARKSEELYPGRPLAIALDTKGPEIRTGTTTNDVDYPIPPNHEMIFTTDDKYAKACDDKIMYVDYKNITKVISAGRIIYVDDGVLSFQVLEVVDDKTLKVKALNAGKICSHKGVNLPGTDVDLPALSEKDKEDLRFGVKNGVHMVFASFIRTANDVLTIREVLGEQGKDVKIIVKIENQQGVNNFDEILKVTDGVMVARGDLGIEIPAPEVLAVQKKLIAKSNLAGKPVICATQMLESMTYNPRPTRAEVSDVGNAILDGADCVMLSGETAKGNYPINAVTTMAETAVIAEQAIAYLPNYDDMRNCTPKPTSTTETVAASAVAAVFEQKAKAIIVLSTSGTTPRLVSKYRPNCPIILVTRCPRAARFSHLYRGVFPFVFEKEPVSDWTDDVEARINFGIEKAKEFGILKKGDTYVSIQGFKAGAGHSNTLQVSTV"
3,binds,"Acs2 (enzyme, UniProt P52910 1-683) MTIKEHKVVYEAHNVKALKAPQHFYNSQPGKGYVTDMQHYQEMYQQSINEPEKFFDKMAKEYLHWDAPYTKVQSGSLNNGDVAWFLNGKLNASYNCVDRHAFANPDKPALIYEADDESDNKIITFGELLRKVSQIAGVLKSWGVKKGDTVAIYLPMIPEAVIAMLAVARIGAIHSVVFAGFSAGSLKDRVVDANSKVVITCDEGKRGGKTINTKKIVDEGLNGVDLVSRILVFQRTGTEGIPMKAGRDYWWHEEAAKQRTYLPPVSCDAEDPLFLLYTSGSTGSPKGVVHTTGGYLLGAALTTRYVFDIHPEDVLFTAGDVGWITGHTYALYGPLTLGTASIIFESTPAYPDYGRYWRIIQRHKATHFYVAPTALRLIKRVGEAEIAKYDTSSLRVLGSVGEPISPDLWEWYHEKVGNKNCVICDTMWQTESGSHLIAPLAGAVPTKPGSATVPFFGINACIIDPVTGVELEGNDVEGVLAVKSPWPSMARSVWNHHDRYMDTYLKPYPGHYFTGDGAGRDHDGYYWIRGRVDDVVNVSGHRLSTSEIEASISNHENVSEAAVVGIPDELTGQTVVAYVSLKDGYLQNNATEGDAEHITPDNLRRELILQVRGEIGPFASPKTIILVRDLPRTRSGKIMRRVLRKVASNEAEQLGDLTTLANPEVVPAIISAVENQFFSQKKK"
4,binds,"Shm2 (enzyme, UniProt P37291 1-469) MPYTLSDAHHKLITSHLVDTDPEVDSIIKDEIERQKHSIDLIASENFTSTSVFDALGTPLSNKYSEGYPGARYYGGNEHIDRMEILCQQRALKAFHVTPDKWGVNVQTLSGSPANLQVYQAIMKPHERLMGLYLPDGGHLSHGYATENRKISAVSTYFESFPYRVNPETGIIDYDTLEKNAILYRPKVLVAGTSAYCRLIDYKRMREIADKCGAYLMVDMAHISGLIAAGVIPSPFEYADIVTTTTHKSLRGPRGAMIFFRRGVRSINPKTGKEVLYDLENPINFSVFPGHQGGPHNHTIAALATALKQAATPEFKEYQTQVLKNAKALESEFKNLGYRLVSNGTDSHMVLVSLREKGVDGARVEYICEKINIALNKNSIPGDKSALVPGGVRIGAPAMTTRGMGEEDFHRIVQYINKAVEFAQQVQQSLPKDACRLKDFKAKVDEGSDVLNTWKKEIYDWAGEYPLAV"

# Results are given in words; binding and its absence hold for the method and conditions named. In cells and extracts the contact can be indirect. These calls come from enrichment with a bait or labelling near it, and not all partners need be listed. Tags and fused reporters may be left off the sequences shown.
